Data source: PubChem BioAssay AID504784 (Drosophila RNAi Screening Center, 2011)
In all, the deposit lists about 17,000 reagents; below is an unselected part of those that have a named target and a result. 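Each column is one replicate's B-score; the combined score over replicates was not deposited, so single values may mislead.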 Names joined by + are all predicted targets of the reagent. Further read-outs or replicates are left out here. Reagent sequences are not shown.

- Test: 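Fly genes whose silencing alters how much lipid cells keep in droplets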 (primary screen)
- Cell system: Drosophila Kc167 embryonic cells
- Reagent: long dsRNA against Drosophila genes, about 250 ng dsRNA per well
- Time to read-out: 4 days
- Treatment: cells fed 400 µM oleic acid bound to BSA
- Measurement: 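Cells imaged and segmented; ratio of lipid droplet area to nuclear area, log-transformed, then normalised as a B-score over the screen; higher means more stored lipid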
- Scale: droplet/nuclear area B-score: higher = more stored lipid (overstorage)

After knock-down of Df31 [DRSC03738], the record shows droplet/nuclear area B-score, replicate 1 = 0.798. Df31 [DRSC22163] showed droplet/nuclear area B-score, replicate 1 = -1.1. Silencing of Cht11 [DRSC18270] gave: droplet/nuclear area B-score, replicate 1 = 0.762. For BigH1 [DRSC15491], the values are droplet/nuclear area B-score, replicate 1 = 0.0175. Knock-down of CG17470 [DRSC02621] came out at: droplet/nuclear area B-score, replicate 1 = -1.86. Knock-down of dsd [DRSC13829] came out at: droplet/nuclear area B-score, replicate 1 = -0.781.

For dsd [DRSC15850] the deposit lists droplet/nuclear area B-score, replicate 1 = -1.84. For CG13049 [DRSC09930], the entry reads droplet/nuclear area B-score, replicate 1 = -0.532. Knock-down of Hmbs [DRSC08632] came out at: droplet/nuclear area B-score, replicate 1 = -0.0712. Mal-A3 [DRSC07462] scored droplet/nuclear area B-score, replicate 1 = -1.05. E2f1 [DRSC16655] gave droplet/nuclear area B-score, replicate 1 = 1.71. After knock-down of Scgbeta [DRSC15854], the screen gave droplet/nuclear area B-score, replicate 1 = 0.847.

With knock-down of Ptp61F [DRSC08683] the results were droplet/nuclear area B-score, replicate 1 = 0.351. With knock-down of Ser12 [DRSC00786], the screen gave droplet/nuclear area B-score, replicate 1 = 0.621. Against Cpr47Ed [DRSC07331], the values are droplet/nuclear area B-score, replicate 1 = -2.29. For ng3 [DRSC18804] the deposit lists droplet/nuclear area B-score, replicate 1 = -0.0985. CG10862 [DRSC08170] gave droplet/nuclear area B-score, replicate 1 = 0.642. Depletion of Gss1 + Gss2 [DRSC20008] gave: droplet/nuclear area B-score, replicate 1 = 0.594.

For Gss1 + Gss2 [DRSC21539], the entry reads droplet/nuclear area B-score, replicate 1 = -1.18. Against CG33278 [DRSC10336] the deposit lists droplet/nuclear area B-score, replicate 1 = -0.359. Against Tti1 [DRSC15163] the deposit lists droplet/nuclear area B-score, replicate 1 = 2.7. After knock-down of Pepck2 [DRSC06013] the results were droplet/nuclear area B-score, replicate 1 = -0.0638. Ephrin [DRSC17165] showed droplet/nuclear area B-score, replicate 1 = -2.14. Depletion of Dip-C [DRSC15855] came out at: droplet/nuclear area B-score, replicate 1 = -0.167.

After knock-down of Frl [DRSC09300], the screen gave droplet/nuclear area B-score, replicate 1 = 0.451. Against Frl [DRSC10027], the values are droplet/nuclear area B-score, replicate 1 = -0.519. After knock-down of Frl [DRSC10716], the record shows droplet/nuclear area B-score, replicate 1 = -0.705. With knock-down of CG10165 [DRSC02017], the screen gave droplet/nuclear area B-score, replicate 1 = 0.957. Against CG5644 [DRSC10531], the values are droplet/nuclear area B-score, replicate 1 = -0.971. Arpc1 [DRSC03438] scored droplet/nuclear area B-score, replicate 1 = -1.44.

Against CG8646 [DRSC07230] the deposit lists droplet/nuclear area B-score, replicate 1 = -1.04. After knock-down of PIG-Q [DRSC19138] the results were droplet/nuclear area B-score, replicate 1 = -2. For wry [DRSC00352] the deposit lists droplet/nuclear area B-score, replicate 1 = 1.46. Silencing of wry [DRSC00456] gave: droplet/nuclear area B-score, replicate 1 = -0.143. wry [DRSC22414] showed droplet/nuclear area B-score, replicate 1 = -0.163. Depletion of tgo [DRSC17077] came out at: droplet/nuclear area B-score, replicate 1 = 0.0176.

With knock-down of CG32599 [DRSC19433], the record shows droplet/nuclear area B-score, replicate 1 = -0.837. Knock-down of Spps [DRSC15856] resulted in: droplet/nuclear area B-score, replicate 1 = 0.411. Depletion of Spps [DRSC23206] came out at: droplet/nuclear area B-score, replicate 1 = 0.586. Cp110 [DRSC20630] gave droplet/nuclear area B-score, replicate 1 = -0.563. Cp110 [DRSC21716] scored droplet/nuclear area B-score, replicate 1 = 1.17. For PH4alphaSG1 [DRSC15080], the values are droplet/nuclear area B-score, replicate 1 = -0.962.

After knock-down of Shal [DRSC09625], the record shows droplet/nuclear area B-score, replicate 1 = -0.0853. For Shal [DRSC11283] the deposit lists droplet/nuclear area B-score, replicate 1 = -1.59. After knock-down of snsl [DRSC00543], the record shows droplet/nuclear area B-score, replicate 1 = -0.952. After knock-down of Obp47b + CG7741 [DRSC06330], the record shows droplet/nuclear area B-score, replicate 1 = 0.432. Knock-down of betaggt-I [DRSC03494] gave: droplet/nuclear area B-score, replicate 1 = 2.11. Crk [DRSC17163] gave droplet/nuclear area B-score, replicate 1 = -0.0974.

For Pms2 [DRSC07511], the values are droplet/nuclear area B-score, replicate 1 = 0.675. For CG14205 [DRSC19560], the values are droplet/nuclear area B-score, replicate 1 = -0.714. X11Lbeta [DRSC18156] scored droplet/nuclear area B-score, replicate 1 = 1.08. Against X11Lbeta [DRSC18158], the entry reads droplet/nuclear area B-score, replicate 1 = -0.328.

Look-ups from the list:
Ptp61F [DRSC08683], droplet/nuclear area B-score, replicate 1 → 0.351
wry [DRSC22414], droplet/nuclear area B-score, replicate 1 = -0.163
Under “droplet/nuclear area B-score, replicate 1”, Hmbs [DRSC08632] reads -0.0712
Gss1 + Gss2 [DRSC20008], droplet/nuclear area B-score, replicate 1 → 0.594
For “droplet/nuclear area B-score, replicate 1”, Spps [DRSC23206] shows 0.586
Ephrin [DRSC17165], droplet/nuclear area B-score, replicate 1 → -2.14
